Test [1] concerns the target T1, CFB (Cytokinin-induced F-box encoding) fused to the LexA DNA-binding domain (Arabidopsis thaliana) (UniProt Q2V3R1).
T1 sequence: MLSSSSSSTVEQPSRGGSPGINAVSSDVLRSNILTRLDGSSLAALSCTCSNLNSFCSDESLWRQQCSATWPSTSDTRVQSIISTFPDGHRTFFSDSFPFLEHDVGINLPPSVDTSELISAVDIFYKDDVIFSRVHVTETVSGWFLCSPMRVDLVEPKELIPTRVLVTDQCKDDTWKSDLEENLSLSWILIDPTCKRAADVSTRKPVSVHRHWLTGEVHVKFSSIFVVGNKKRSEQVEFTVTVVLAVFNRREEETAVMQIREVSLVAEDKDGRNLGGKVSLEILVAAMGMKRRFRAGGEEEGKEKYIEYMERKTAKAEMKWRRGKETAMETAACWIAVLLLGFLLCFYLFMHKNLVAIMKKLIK
The experiment in a line: two-hybrid; lexA-based yeast two-hybrid in L40ccU3 cells; CFB versions on LexA-BD, ASK1 on Gal4-AD; growth on SDIV selection medium, 3 d at 28 °C.

Protein sequences, listed by entry. Tags and fused reporters are not part of them. Lines headed by an entry give the natural chain unless they say otherwise; changes in a name come on top.
UniProt Q39255: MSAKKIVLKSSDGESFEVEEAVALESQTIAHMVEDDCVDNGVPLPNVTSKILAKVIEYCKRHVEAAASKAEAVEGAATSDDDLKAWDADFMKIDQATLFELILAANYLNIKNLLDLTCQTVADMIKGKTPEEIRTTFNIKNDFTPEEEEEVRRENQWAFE

Test [2] has as its target T2, CFB fused to the C-terminal part of ubiquitin (Cub) (Arabidopsis thaliana) (UniProt Q2V3R1).
T2 sequence: T1 sequence
The experiment in a line: split reporter; split-ubiquitin system in yeast THY.AP4α; CFB versions fused to Cub, ASK1 to NubG; growth on SD -L, -W, -A, -H with 135 µM Met.

No constants are given. Whether binding was seen depends on the method and setting. For some assays here: Binding seen in cells or lysates may run through a third protein. Some binding calls cover weakened binding; strength is not graded here. Sequences can lack the tags named with a protein.

This passage reports binding results from publication PMC5853388.

For “ASK1 (Arabidopsis SKP1 homolog) fused to the Gal4 activation domain (from UniProt Q39255 1-160)”, the binding result in test [1] is “binds”.

Take “ASK1 fused to the non-interacting N-terminal mutant part of ubiquitin (NubG) (from UniProt Q39255 1-160)”: the binding entry in test [2] is recorded as “binds”.
